Results on 4 molecules are retold here after publication PMC6609562, “A new split‐luciferase complementation assay identifies pentachlorophenol as an inhibitor of apoptosome formation” (FEBS Open Bio, 2019).

These are yes or no findings as the source states them, for the method shown. For some assays here: Binding seen in cells or lysates may run through a third protein. Some results given as binding are weak or reduced against the parent protein; the word gives no strength. For some assays here: Sequences can lack the tags named with a protein.

Assay [1] concerns the target Purified recombinant Apaf-1 (rApaf-1) (human) (UniProt O14727). Kind of assay: SEC; as a3, purified rApaf-1 with cytochrome c and dATP, plus 1 mM PCP (pentachlorophenol); gel filtration, dot blot with an anti-Apaf-1 antibody; both purified. On the technique in general: SEC sorts molecules by how far they enter the pores of the column.
The target of assay [2] is T1, Cluc-Apaf1 (Apaf-1 XL fused to the C-terminal fragment of firefly luciferase) (human), O14727.
T1 chain: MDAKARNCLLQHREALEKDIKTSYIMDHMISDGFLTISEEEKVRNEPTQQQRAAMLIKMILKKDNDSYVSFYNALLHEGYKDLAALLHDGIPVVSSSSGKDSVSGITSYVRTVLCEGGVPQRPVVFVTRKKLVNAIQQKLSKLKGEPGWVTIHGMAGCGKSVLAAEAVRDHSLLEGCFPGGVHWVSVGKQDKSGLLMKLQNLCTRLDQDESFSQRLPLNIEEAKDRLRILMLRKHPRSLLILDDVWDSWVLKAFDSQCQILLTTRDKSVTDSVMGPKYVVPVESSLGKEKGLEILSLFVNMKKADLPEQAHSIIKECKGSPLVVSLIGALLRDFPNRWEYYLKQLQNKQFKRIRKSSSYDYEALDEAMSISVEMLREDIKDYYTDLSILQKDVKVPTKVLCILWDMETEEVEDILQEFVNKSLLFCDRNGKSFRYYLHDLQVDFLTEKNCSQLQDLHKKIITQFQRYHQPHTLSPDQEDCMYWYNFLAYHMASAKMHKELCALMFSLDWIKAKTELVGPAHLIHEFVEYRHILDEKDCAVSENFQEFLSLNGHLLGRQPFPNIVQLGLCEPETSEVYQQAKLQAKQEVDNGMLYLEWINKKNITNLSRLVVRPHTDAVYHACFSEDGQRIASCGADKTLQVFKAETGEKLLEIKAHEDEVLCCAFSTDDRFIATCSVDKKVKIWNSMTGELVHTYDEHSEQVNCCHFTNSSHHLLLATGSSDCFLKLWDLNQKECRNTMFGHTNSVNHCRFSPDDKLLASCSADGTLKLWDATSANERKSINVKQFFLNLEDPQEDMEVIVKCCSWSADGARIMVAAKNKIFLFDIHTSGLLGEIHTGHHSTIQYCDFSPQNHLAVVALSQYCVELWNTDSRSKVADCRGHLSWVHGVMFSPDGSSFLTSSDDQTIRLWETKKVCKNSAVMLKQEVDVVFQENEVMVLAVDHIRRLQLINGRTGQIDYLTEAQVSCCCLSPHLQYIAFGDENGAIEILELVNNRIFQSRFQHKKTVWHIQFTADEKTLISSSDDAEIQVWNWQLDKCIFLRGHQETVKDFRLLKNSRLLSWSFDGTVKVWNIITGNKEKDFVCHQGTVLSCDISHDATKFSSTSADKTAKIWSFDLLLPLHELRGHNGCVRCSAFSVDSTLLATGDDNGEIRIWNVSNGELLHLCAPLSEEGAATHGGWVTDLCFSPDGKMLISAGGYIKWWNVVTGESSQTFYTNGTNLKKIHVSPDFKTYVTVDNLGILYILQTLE
Put plainly: split reporter; split firefly luciferase complementation; ice-cold S-100 extracts of Nluc-Apaf1 and Cluc-Apaf1 cells mixed 1:1, with and without 1.6 μM cytochrome c and 1 mM dATP (cytochrome c titrated in one experiment); One-Glo Luciferase Assay System, light read at 25 °C over 15 min. Particulars: remark: other sources report otherwise.

In assay [3] the target is T1, Cluc-Apaf1 (Apaf-1 XL fused to the …). Kind of assay: SEC; 1 mL S-100 extract (untransfected HEK 293, or Nluc-Apaf1 and Cluc-Apaf1 extracts mixed 1:1) incubated for 15 min in the presence and absence of dATP/Cc, Sephacryl 300 HR column; fractions concentrated and immunoblotted for Apaf-1. The settings on record: remark: other sources report otherwise.
Assay [4] has as its target T2, Purified recombinant Apaf-1 (rApaf-1) (human), O14727.
T2 chain: T1 chain
Kind of assay: SEC; purified rApaf-1 with cytochrome c and dATP; gel filtration, fractions analysed by dot blot with an anti-Apaf-1 antibody; markers thyroglobulin (669 kDa) and aldolase (158 kDa); both purified. Particulars: remark: other sources report otherwise.

Assay [5] deals with T3, Apoptotic Protease-Activating Factor-1 (Apaf-1), endogenous in HEK 293 S-100 extract (human (endogenous in HEK 293)), O14727.
T3 chain: T1 chain
Kind of assay: SEC; 1 mL S-100 extract (untransfected HEK 293, or Nluc-Apaf1 and Cluc-Apaf1 extracts mixed 1:1) incubated for 15 min in the presence and absence of dATP/Cc, Sephacryl 300 HR column; fractions concentrated and immunoblotted for Apaf-1. The settings on record: remark: other sources report otherwise.

On to “Purified recombinant Apaf-1 (rApaf-1) (from UniProt O14727 1-1248)”, for which the binding entry in assay [1] is on record as “no binding (condition: with 1 mM PCP)”.

B1: Nluc-Apaf1 (Apaf-1 XL fused to the N-terminal fragment of firefly luciferase), O14727-1 1-1248 (natural protein)
chain: T1 chain
With B1, the binding result in assay [2] and in assay [3] was “binds” each time.

B2: Purified recombinant Apaf-1 (rApaf-1), O14727 1-1248 (protein)
chain: T1 chain
As to B2, the binding result in assay [4] is on record as “binds”.

B3: Apoptotic Protease-Activating Factor-1 (Apaf-1), endogenous in HEK 293 S-100 extract, O14727 1-1248 (protein)
chain: T1 chain
Take B3: the binding result in assay [5] is “binds”.
